Results taken from paper PMC4034419.
For at least one entry, the source does not settle the construct or the ends of the probe. At least one verdict rests on a figure or table, not on a statement of the authors. For some of these results: Where a protein sequence is shown, tags need not be part of it.

Columns and labels:
Assay in all cases: not stated (data not shown)
Conditions in all cases: 5 deoxyuridines (U at 6, 11, 14, 17 as printed; text states 5 uracils); 20 mM Tris-HCl pH 8.5, 10 mM KCl, 10 mM (NH4)2SO4 (ionic strength 40); 10 nM Hex primer-template; recombinant protein; single-stranded DNA
[1] = molecular target: Pfu-Pol M247R/L381R (Pyrococcus furiosus) (UniProt P61875)
[2] = molecular target: Pfu-Pol L381R/K502R (Pyrococcus furiosus) (UniProt P61875)
[3] = molecular target: Pfu-Pol wild type (family-B DNA polymerase) (Pyrococcus furiosus) (UniProt P61875)
[4] = molecular target: T1, Tkod-Pol wild type (family-B DNA polymerase) (Thermococcus kodakarensis) (UniProt D0VWU9)
T1 sequence (looked up, limits assumed): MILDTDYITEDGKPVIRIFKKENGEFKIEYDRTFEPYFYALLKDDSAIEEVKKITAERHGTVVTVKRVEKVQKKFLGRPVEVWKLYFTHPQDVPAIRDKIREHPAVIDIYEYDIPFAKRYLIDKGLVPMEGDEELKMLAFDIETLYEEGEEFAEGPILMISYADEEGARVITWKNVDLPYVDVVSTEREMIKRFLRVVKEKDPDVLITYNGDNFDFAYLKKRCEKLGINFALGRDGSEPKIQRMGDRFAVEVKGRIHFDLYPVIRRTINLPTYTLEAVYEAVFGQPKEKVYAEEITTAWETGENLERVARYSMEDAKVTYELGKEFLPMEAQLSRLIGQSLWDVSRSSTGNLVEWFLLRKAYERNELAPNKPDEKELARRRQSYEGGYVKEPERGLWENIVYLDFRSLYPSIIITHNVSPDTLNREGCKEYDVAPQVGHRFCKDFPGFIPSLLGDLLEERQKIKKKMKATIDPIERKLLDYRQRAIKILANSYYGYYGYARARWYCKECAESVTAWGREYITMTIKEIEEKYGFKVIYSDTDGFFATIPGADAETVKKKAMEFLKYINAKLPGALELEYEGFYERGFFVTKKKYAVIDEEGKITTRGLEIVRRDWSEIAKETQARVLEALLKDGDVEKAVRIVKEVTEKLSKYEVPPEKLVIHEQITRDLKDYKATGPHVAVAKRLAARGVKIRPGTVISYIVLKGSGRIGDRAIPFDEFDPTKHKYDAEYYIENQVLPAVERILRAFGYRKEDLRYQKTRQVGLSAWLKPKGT

Measured: binding result

GTTGGUACUCTUAGUCTUTAGGT [uracil-rich trap 23-mer]
binds: all assays above
